The assay deals with T1, Human IP6K1 (Homo sapiens, UniProt Q92551).
T1 construct: GST (N, cleaved yes); made in house; host or cells: C43 E. coli, pGEX-6P-2
As to the kind of experiment: IP6K1 high-throughput screen of the Sigma LOPAC (ADP-Glo Max, single point).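 Note: final compound concentration 10µM in 5% DMSO.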 In kind it is biochemical.

The chains behind the UniProt entries cited, without tags or fusion partners. Where a name states a change or a piece, a line headed by the entry shows the natural chain unless it says otherwise.
UniProt Q92551: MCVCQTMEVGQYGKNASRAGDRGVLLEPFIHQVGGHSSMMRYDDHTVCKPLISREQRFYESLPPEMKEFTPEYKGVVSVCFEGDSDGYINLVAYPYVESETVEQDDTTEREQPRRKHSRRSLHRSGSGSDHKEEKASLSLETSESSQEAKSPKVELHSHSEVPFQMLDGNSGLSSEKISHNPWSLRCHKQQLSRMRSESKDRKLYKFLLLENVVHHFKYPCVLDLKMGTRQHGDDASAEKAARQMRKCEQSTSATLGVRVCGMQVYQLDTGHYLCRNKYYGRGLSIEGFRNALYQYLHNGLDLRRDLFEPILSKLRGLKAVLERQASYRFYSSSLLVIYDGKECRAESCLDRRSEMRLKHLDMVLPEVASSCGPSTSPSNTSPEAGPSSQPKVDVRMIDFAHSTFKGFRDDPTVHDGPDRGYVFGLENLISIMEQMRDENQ

Each structure is given as a SMILES string.

For the molecule `COc1ccc(CC(C)NCC(O)c2ccc(O)c(NC=O)c2)cc1` (centres unmarked) [Formoterol], the “Raw Signal” value was determined as 54961 and the Z-score is on record as -0.04184.

The values are drawn from PMC5706701, “Development of a homogenous high-throughput assay for inositol hexakisphosphate kinase 1 activity” (PLoS ONE, 2017).
